These results are taken from paper PMC10906229.

Sequences of proteins named here, by UniProt entry; tags and fusion partners are left off. Residues count along the entry.
UniProt P09055, residues 21-798: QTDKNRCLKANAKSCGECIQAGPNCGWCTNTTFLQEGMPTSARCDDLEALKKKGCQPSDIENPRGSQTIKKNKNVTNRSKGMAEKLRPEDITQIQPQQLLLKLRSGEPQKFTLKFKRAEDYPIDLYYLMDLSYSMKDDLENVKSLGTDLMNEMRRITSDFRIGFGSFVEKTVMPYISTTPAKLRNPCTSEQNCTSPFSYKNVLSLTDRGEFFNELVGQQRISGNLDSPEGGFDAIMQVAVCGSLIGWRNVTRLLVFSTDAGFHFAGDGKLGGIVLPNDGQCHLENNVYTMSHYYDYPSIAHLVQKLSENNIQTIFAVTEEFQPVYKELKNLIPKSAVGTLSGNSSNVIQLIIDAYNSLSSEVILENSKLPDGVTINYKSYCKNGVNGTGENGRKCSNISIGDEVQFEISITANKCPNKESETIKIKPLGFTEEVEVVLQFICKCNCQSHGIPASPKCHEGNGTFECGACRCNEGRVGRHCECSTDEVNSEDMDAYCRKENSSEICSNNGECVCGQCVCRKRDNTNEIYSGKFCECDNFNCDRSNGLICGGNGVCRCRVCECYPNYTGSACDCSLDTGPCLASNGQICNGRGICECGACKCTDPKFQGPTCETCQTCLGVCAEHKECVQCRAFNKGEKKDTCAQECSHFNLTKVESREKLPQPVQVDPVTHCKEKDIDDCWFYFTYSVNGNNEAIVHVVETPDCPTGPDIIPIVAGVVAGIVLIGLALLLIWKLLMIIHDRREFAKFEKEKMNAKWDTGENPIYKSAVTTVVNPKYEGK
UniProt P35441, residues 19-1170: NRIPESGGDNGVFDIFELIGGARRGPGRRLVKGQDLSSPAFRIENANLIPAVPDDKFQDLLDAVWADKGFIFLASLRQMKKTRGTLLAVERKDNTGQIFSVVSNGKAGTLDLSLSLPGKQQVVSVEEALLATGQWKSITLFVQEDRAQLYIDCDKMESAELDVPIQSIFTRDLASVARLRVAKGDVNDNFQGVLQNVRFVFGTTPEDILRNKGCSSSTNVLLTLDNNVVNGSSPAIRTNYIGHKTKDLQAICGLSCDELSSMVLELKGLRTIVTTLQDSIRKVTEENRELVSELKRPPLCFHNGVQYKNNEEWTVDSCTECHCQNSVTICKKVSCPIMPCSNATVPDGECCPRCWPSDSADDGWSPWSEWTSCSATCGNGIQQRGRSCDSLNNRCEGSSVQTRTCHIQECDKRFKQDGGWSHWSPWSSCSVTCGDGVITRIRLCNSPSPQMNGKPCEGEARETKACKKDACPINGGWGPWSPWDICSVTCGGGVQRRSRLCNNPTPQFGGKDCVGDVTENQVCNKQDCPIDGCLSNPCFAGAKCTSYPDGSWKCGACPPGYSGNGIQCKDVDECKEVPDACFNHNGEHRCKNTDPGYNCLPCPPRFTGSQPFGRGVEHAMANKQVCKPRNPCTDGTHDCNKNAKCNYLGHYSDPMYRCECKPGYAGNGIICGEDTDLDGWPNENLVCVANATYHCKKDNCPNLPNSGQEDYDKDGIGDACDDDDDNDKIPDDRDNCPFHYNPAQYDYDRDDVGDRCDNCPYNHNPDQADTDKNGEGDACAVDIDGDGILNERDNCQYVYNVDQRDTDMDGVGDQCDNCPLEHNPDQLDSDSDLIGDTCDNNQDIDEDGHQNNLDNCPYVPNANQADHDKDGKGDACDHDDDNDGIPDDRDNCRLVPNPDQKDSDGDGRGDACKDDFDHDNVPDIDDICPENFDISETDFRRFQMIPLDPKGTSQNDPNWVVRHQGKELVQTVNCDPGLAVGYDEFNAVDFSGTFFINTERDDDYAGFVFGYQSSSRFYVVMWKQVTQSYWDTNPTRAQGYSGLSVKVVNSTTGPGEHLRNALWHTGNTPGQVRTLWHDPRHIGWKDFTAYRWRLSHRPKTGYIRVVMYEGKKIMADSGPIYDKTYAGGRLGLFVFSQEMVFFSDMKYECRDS

The experiment concerns the target integrin β1 (ITGB1), Myc-labeled (UniProt P09055). The experiment can be described thus: co-IP; 293T cells co-transfected with Flag-labeled Thbs1 and Myc-labeled Itgb1 plasmids for 48 hours; precleaned lysates incubated with anti-Myc or anti-Flag magnetic beads; eluates blotted with anti-Flag or anti-Myc antibodies.

Results are given in words; binding and its absence hold for the method and conditions named. In cells and extracts the contact can be indirect. Some results given as binding are weak or reduced against the parent protein; the word gives no strength.

As to “thrombospondin 1 (THBS-1), Flag-labeled (from UniProt P35441 19-1170)”, the binding entry is on record as “binds”.
